Numbering of substitutions follows the chain as printed. Numbers in names are those of the source. Results are given in words; binding and its absence hold for the method and conditions named. Some results given as binding are weak or reduced against the parent protein; the word gives no strength. Values belong to the binder of their own block, whether it stands above or below them.
Key:
[1] = target: wild type mouse MLKL (mixed lineage kinase domain-like) (mouse) (UniProt Q9D2Y4); assay: native gel or EMSA
[2] = target: R105A/D106A mutant mouse MLKL (mouse) (UniProt Q9D2Y4); assay: native gel or EMSA

binding [1]: binds
B1: wild type mouse MLKL (mixed lineage kinase domain-like) (protein, UniProt Q9D2Y4 1-472)
chain: MDKLGQIIKLGQLIYEQCEKMKYCRKQCQRLGNRVHGLLQPLQRLQAQGKKNLPDDITAALGRFDEVLKEANQQIEKFSKKSHIWKFVSVGNDKILFHEVNEKLRDVWEELLLLLQVYHWNTVSDVSQPASWQQEDRQDAEEDGNENMKVILMQLQISVEEINKTLKQCSLKPTQEIPQDLQIKEIPKEHLGPPWTKLKTSKMSTIYRGEYHRSPVTIKVFNNPQAESVGIVRFTFNDEIKTMKKFDSPNILRIFGICIDQTVKPPEFSIVMEYCELGTLRELLDREKDLTMSVRSLLVLRAARGLYRLHHSETLHRNISSSSFLVAGGYQVKLAGFELSKTQNSISRTAKSTKAERSSSTIYVSPERLKNPFCLYDIKAEIYSFGIVLWEIATGKIPFEGCDSKKIRELVAEDKKQEPVGQDCPELLREIINECRAHEPSQRPSVDGRSLSGRERILERLSAVEESTDKKV

binding [2]: no binding
B2: R105A/D106A mutant mouse MLKL (protein, UniProt Q9D2Y4 1-472)
chain: B1 chain with R105A, D106A
